Measured values published in patent US20190153103A1.
Results are given in words; binding and its absence hold for the method and conditions named. Some results given as binding are weak or reduced against the parent protein; the word gives no strength. For part of these data: Where a sequence is shown, tags or fusion partners need not be part of it.

By UniProt entry, the sequences of proteins in these tests, tags left out. Where a name states a change or a piece, a line headed by the entry shows the natural chain unless it says otherwise.
UniProt O00238: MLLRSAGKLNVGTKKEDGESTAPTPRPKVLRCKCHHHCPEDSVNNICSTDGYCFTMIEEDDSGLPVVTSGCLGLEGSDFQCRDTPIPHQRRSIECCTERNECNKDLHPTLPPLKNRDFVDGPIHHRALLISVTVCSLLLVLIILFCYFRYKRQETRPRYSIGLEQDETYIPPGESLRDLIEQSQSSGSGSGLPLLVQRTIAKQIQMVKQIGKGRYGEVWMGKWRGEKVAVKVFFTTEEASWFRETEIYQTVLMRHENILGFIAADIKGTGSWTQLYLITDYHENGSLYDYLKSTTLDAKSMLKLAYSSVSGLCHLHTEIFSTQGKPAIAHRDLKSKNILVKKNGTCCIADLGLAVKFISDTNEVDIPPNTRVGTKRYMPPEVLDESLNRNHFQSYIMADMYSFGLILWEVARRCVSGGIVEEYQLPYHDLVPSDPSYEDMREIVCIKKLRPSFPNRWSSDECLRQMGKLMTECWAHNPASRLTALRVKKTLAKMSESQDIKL

T1: rat-his
T1 sequence: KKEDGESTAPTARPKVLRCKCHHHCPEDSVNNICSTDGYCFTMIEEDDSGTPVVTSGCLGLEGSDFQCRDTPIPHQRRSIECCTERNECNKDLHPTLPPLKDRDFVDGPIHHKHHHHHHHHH


What was measured:
[1] = target: human BMPR1B coated on MSD plates (construct not stated) (human) (UniProt O00238); experiment: MSD ELISA, antibody titrated, BMP2 blocked
[2] = target: human BMPR1B coated on MSD plates (construct not stated) (human) (UniProt O00238); experiment: MSD ELISA, antibody titrated, BMP4 blocked
[3] = target: T1, rat-his; experiment: Biacore

binding [1]	binding [2]	binding [3]	Binder
binds	binds		SC91.9 (murine anti-BMPR1B antibody) (antibody, V domains shown) VH: QVQLQQPGAELVKPGASVKLSCKASGYTFISYWMHWVKQRPGQGLEWIGMIHPNSGSTNYNESFKSKATLTVDKSSSTAYMQLSSLTSEDSAVYYCARDLLIATVVVTPYFAYWGQGTILTVSS VL: DIQMTQTTSSLSASLGDRVTISCRASQDISNFLNWYQQKPDGTIKFLIYYTSRLHSGVPSRFSGSGSGTDYSLTIRNLEQEDIATYFCQQGNTLPYTFGGGTKLEIK
	binds		SC91.19 (antibody, V domains shown) VH: QIQLVQSGPELKKPGETVKISCKASGYTFTTYGMNWVKQAPGKGLKWMGWINTYSGVPSSANDFKGRFAFSLETSASTAYLQINNLKNEDTATYFCARSELRNWYFDVWGTGTTVTVSS VL: SFVMTQTPKFLLVSAGDRVTITCKASQSVGNDVAWYQQKPGQSPKLLIYYASNRYTGVPDRFTGSGYGTDFTFTISTVQAEDLAVYFCQQDYSSPFTFGSGTKLEMK
		binds	SC91.111 (antibody, V domains shown) VH: QIQLVQSGPELKKPGETVKISCKASGYTLTTYGMNWVKQAPGKGLKWMGWINTYSGVPAYADDFKGRFAFSLETSASTAYLQINNFKNEDTATYFCARSELRNWYFDVWGTGTTVTVSS VL: SFVMTQTPKFLLVSAGDRVTITCKASQNMGHNVAWYQQKPGQSPKLLIYYASNRYTGVPDRFTGSGYGTDFTFTISTVQAEDLAVYFCQQDYSSPFTFGSGTKLEIK
binds	binds		SC91.1 (murine anti-BMPR1B antibody) (antibody, V domains shown) VH: QVQLQQPGAELVKPGASVKLSCKASGYTFTSYWMQWVKQRPGQGLEWIGEIDPSDNYTLYNQKFKGKATLTVDTSSSTAYMQLSSLTSEDSAVYYCARFGYYVDYWGLGTTLTVSS VL: DVVMTQTPLSLPVSLGDQASIFCRSSQSLVHSTGNTYLHWYLQKPGQSPKLLIYKVSNRFSGVPDRFSGSGSGTDFTLKISRVEAEDLGVYFCSQSTHVPFTFGSGTKLEIK
